Reference: PubChem BioAssay AID1259254 (NCATS, 2017)
Here is an unselected part of about 59,000 reagents tested. Of all reagents, about 1,550 (2.6%) are marked active. 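G2 share is only a proxy for re-replication; each gene was hit by three separate siRNAs, and active genes were retested.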 The numbers tell different reagents against one gene apart. Further read-outs or replicates are left out here. The record does not give: the amount of reagent.

Test: 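Gene knock-downs that lead to re-replication, shown by excess G2 DNA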 (primary screen)
Cells: human HCT116 colorectal cancer cells
Reagent: single siRNA against human genes
Timing: 3 days
Read-out: 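Nuclei stained with Hoechst and imaged; cell-cycle phase assigned by DNA content; G2 share scaled per plate, non-targeting siRNA 0%, GMNN siRNA 100%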
Direction: G2 robust z-score and G2 cells, % of GMNN control: higher = more G2 cells, more excess DNA replication
Active means: 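Active siRNAs have a G2 robust z of 5 or more median absolute deviations over the median, which in these data means about 38% or higher of GMNN control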

Silencing of KCNA2 #1 came out at: G2 robust z-score 1.11; G2 cells, % of GMNN control 10.7; inactive. With knock-down of KCNA2 #2, the screen gave G2 robust z-score -0.958; G2 cells, % of GMNN control -3.77; inactive. Knock-down of KCNA2 #3 came out at: G2 robust z-score -0.628; G2 cells, % of GMNN control -1.45; inactive. With knock-down of ZNF823 #1, the screen gave G2 robust z-score 0.434; G2 cells, % of GMNN control 6.02; inactive. With knock-down of ZNF823 #2, the record shows G2 robust z-score 1.05; G2 cells, % of GMNN control 10.4; inactive. Against ZNF823 #3 the deposit lists G2 robust z-score -0.161; G2 cells, % of GMNN control 1.83; inactive.

Part of the list above, reformatted.
target gene | reagent no. | G2 robust z-score | G2 cells, % of GMNN control | activity call
KCNA2 | 2 | -0.958 | -3.77 | inactive
KCNA2 | 3 | -0.628 | -1.45 | inactive
ZNF823 | 1 | 0.434 | 6.02 | inactive

Continued:
CABYR #1 scored G2 robust z-score 1.31; G2 cells, % of GMNN control 12.2; inactive. Silencing of CABYR #2 resulted in: G2 robust z-score -0.64; G2 cells, % of GMNN control -1.53; inactive. Depletion of CABYR #3 came out at: G2 robust z-score 0.254; G2 cells, % of GMNN control 4.75; inactive. Knock-down of VSTM5 #1 gave: G2 robust z-score -0.375; G2 cells, % of GMNN control 0.328; inactive. With knock-down of VSTM5 #2 the results were G2 robust z-score -0.4; G2 cells, % of GMNN control 0.151; inactive. VSTM5 #3 showed G2 robust z-score -0.474; G2 cells, % of GMNN control -0.369; inactive.

PHLDA1 #1 scored G2 robust z-score 1.71; G2 cells, % of GMNN control 15; inactive. Silencing of PHLDA1 #2 came out at: G2 robust z-score -0.963; G2 cells, % of GMNN control -3.81; inactive. After knock-down of PHLDA1 #3, the screen gave G2 robust z-score 1.35; G2 cells, % of GMNN control 12.5; inactive. NSUN5 #1 showed G2 robust z-score -0.0437; G2 cells, % of GMNN control 2.66; inactive. NSUN5 #2 showed G2 robust z-score -0.842; G2 cells, % of GMNN control -2.96; inactive. With knock-down of NSUN5 #3, the record shows G2 robust z-score -0.508; G2 cells, % of GMNN control -0.606; inactive.
